From PMC10984984, “Loss-of-function mutation in PRMT9 causes abnormal synapse development by dysregulation of RNA alternative splicing” come the findings set out here.

The chains behind the UniProt entries cited, without tags or fusion partners. Where a name states a change or a piece, a line headed by the entry shows the natural chain unless it says otherwise.
UniProt Q6P2P2: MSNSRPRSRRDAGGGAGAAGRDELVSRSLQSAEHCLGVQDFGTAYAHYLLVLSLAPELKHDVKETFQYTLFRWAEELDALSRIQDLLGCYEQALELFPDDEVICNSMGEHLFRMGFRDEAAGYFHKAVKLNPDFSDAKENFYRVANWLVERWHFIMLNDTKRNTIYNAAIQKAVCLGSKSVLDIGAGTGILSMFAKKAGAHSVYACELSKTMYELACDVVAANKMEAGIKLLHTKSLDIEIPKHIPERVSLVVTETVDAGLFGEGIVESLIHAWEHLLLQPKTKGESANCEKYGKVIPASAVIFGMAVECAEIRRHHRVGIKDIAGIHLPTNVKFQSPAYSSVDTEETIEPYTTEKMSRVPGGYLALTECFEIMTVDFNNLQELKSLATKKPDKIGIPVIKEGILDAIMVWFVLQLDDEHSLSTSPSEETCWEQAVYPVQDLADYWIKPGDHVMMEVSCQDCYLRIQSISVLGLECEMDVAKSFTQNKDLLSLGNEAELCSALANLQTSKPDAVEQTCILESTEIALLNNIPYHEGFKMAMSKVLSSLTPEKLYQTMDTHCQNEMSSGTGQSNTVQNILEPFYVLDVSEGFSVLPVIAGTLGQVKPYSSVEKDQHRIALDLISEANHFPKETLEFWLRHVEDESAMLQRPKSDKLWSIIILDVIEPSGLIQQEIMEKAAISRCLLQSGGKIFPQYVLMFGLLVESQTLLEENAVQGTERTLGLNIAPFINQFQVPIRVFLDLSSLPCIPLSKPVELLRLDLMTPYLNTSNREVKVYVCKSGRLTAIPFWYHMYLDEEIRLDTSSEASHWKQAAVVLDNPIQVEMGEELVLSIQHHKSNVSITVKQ
UniProt Q13435: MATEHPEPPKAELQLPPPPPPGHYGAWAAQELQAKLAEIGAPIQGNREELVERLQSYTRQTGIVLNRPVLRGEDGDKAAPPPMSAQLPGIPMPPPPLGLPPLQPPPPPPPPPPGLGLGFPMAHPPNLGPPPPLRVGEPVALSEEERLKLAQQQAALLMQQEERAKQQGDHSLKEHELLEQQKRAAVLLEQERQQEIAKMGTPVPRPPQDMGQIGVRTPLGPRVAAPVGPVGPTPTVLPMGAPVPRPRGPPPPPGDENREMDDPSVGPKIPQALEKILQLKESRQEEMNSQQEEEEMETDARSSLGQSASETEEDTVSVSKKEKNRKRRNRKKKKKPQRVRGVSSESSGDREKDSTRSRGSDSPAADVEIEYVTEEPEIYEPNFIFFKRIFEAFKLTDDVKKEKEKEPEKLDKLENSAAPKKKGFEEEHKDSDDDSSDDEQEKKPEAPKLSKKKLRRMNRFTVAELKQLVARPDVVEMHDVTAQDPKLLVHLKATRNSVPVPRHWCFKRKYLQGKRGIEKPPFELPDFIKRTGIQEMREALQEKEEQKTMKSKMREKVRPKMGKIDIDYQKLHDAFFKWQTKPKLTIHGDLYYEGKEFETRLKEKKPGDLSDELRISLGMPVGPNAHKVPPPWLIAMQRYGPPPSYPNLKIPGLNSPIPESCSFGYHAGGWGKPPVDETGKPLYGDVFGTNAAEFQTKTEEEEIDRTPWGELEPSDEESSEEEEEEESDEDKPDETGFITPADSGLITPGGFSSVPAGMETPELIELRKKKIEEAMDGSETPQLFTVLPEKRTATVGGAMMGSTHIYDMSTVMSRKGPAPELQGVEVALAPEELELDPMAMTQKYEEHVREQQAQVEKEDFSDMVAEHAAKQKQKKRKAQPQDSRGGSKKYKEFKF
UniProt Q15386: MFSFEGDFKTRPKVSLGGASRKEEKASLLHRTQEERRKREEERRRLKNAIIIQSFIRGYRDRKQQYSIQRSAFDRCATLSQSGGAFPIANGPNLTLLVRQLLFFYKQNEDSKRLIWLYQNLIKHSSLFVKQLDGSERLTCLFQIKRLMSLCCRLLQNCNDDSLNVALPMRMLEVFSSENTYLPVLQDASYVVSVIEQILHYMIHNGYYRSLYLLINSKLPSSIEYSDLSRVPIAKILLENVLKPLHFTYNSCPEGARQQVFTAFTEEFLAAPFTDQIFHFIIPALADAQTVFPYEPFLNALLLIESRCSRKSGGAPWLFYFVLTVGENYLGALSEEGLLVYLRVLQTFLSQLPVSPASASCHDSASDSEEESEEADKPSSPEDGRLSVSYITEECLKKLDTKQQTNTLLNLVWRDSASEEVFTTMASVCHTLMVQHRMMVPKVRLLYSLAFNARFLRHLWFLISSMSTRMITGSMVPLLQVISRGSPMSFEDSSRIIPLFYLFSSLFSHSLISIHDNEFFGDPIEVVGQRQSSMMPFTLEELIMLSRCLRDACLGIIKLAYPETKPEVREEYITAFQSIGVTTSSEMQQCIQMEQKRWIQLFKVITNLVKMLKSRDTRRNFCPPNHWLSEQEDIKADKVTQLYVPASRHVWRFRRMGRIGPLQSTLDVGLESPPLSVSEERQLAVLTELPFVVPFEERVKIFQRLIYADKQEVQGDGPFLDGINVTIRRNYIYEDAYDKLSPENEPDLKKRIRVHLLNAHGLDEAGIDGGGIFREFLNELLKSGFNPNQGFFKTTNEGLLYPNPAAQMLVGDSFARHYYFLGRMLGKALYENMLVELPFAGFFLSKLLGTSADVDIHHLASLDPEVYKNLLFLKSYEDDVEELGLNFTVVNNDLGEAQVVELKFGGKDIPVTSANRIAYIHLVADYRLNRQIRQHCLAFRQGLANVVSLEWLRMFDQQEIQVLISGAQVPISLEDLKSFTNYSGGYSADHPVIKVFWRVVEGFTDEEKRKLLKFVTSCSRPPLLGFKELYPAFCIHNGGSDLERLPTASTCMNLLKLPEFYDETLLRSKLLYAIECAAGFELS

These are yes or no findings as the source states them, for the method shown. In cells and extracts the contact can be indirect. For some of these results: A result given as binding can be weak or reduced; the word gives no strength.

Common to all, as to experiment: co-IP; Flag-tagged WT or mutant PRMT9 immunoprecipitated from lysates of transfected cells (anti-Flag M2 magnetic beads in Fig. 2e), partners detected by western blot; co-IP buffer 50 mM Tris-HCl pH 7.5, 150 mM NaCl, 5 mM EDTA, 15 mM MgCl2, 0.1% NP-40
(Immunoblotting shows a protein as a band on a membrane.)

Test [1] addresses Flag-tagged catalytic-inactive PRMT9 4A mutant (VLDI mutated to AAAA) (human) (UniProt Q6P2P2).
Test [2] addresses Flag-tagged G189R-mutant PRMT9 (human) (UniProt Q6P2P2).
Test [3] deals with Flag-tagged wild type PRMT9 (protein arginine methyltransferase 9) (human) (UniProt Q6P2P2).

For the substance “splicing factor 3B subunit 2 (SF3B2), endogenous (from UniProt Q13435 1-895)”, the figures for the binding result in test [1], in test [2] and in test [3] were “no binding”, “no binding” and “binds”, respectively.
Turning to “ubiquitin-protein ligase E3C (UBE3C) (from UniProt Q15386 1-1083) (enzyme)”, the binding entry in test [2] and in test [3] was “binds” each time.
On to “valosin-containing protein (VCP)/p97 (from UniProt P55072 1-806)”, for which the binding result in test [2] and in test [3] was “binds” each time.
